Data on ten molecules can be found in publication doi:10.1101/2025.01.25.634884.

By UniProt entry, the sequences of proteins in these tests, tags left out. Residues count along the entry.
UniProt Q69YL0: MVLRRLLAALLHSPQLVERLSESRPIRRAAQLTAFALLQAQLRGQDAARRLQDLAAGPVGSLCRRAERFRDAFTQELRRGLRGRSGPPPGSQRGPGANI
UniProt P25705, residues 44-553: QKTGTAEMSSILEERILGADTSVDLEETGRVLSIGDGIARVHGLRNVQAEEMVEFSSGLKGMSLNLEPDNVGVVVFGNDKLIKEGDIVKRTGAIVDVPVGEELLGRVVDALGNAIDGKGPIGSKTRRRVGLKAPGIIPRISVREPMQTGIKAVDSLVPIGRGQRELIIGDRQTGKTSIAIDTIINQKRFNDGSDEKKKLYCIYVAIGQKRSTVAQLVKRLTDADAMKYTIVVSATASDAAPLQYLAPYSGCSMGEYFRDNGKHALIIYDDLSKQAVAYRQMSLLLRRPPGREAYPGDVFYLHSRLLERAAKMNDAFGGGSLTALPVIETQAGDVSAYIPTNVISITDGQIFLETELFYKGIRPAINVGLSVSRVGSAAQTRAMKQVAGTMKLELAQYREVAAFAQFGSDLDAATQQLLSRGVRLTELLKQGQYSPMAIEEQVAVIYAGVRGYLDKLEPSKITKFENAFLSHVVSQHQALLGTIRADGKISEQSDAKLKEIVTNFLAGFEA
UniProt P21796: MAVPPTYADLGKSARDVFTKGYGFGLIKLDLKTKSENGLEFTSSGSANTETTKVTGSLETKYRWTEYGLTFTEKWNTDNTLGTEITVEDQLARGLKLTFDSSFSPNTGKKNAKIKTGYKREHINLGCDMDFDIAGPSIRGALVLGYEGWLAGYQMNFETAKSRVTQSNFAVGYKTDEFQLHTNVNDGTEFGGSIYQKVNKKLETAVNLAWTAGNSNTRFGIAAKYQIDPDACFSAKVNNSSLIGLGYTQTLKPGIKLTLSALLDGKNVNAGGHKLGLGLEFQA

The chains are these.
B1: TIMM10 (protein, UniProt P62072 1-90)
chain: MDPLRAQQLAAELEVEMMADMYNRMTSACHRKCVPPHYKEAELSKGESVCLDRCVSKYLDIHERMGKKLTELSMQDEELMKRVQQSSGPA
B2: TIMM9 (protein, UniProt Q9Y5J7 1-89)
chain: MAAQIPESDQIKQFKEFLGTYNKLTETCFLDCVKDFTTREVKPEETTCSEHCLQKYLKMTQRISMRFQEYHIQQNEALAAKAGLLGQPR
B3: TIMM13 (protein, UniProt Q9Y5L4 1-95)
chain: MEGGFGSDFGGSGSGKLDPGLIMEQVKVQIAVANAQELLQRMTDKCFRKCIGKPGGSLDNSEQKCIAMCMDRYMDAWNTVSRAYNSRLQRERANM
B4: C19ORF52 (TIMM29) (protein, UniProt Q9BSF4 32-260)
chain: GSWARALLRDYAEACRDASAEARARPGRAAVYVGLLGGAAACFTLAPSEGAFEEALLEASGTLLLLAPATRNRESEAFVQRLLWLRGRGRLRYVNLGLCSLVYEAPFDAQASLYQARCRYLQPRWTDFPGRVLDVGFVGRWWVLGAWMRDCDINDDEFLHLPAHLRVVGPQQLHSETNERLFDEKYKPVVLTDDQVDQALWEEQVLQKEKKDRLALSQAHSLVQAEAPR
B5: SLC25A6 (protein, UniProt P12236 1-298)
chain: MTEQAISFAKDFLAGGIAAAISKTAVAPIERVKLLLQVQHASKQIAADKQYKGIVDCIVRIPKEQGVLSFWRGNLANVIRYFPTQALNFAFKDKYKQIFLGGVDKHTQFWRYFAGNLASGGAAGATSLCFVYPLDFARTRLAADVGKSGTEREFRGLGDCLVKITKSDGIRGLYQGFSVSVQGIIIYRAAYFGVYDTAKGMLPDPKNTHIVVSWMIAQTVTAVAGVVSYPFDTVRRRMMMQSGRKGADIMYTGTVDCWRKIFRDEGGKAFFKGAWSNVLRGMGGAFVLVLYDELKKVI
B6: TIMM10B (protein, UniProt Q9Y5J6 1-103)
chain: MERQQQQQQQLRNLRDFLLVYNRMTELCFQRCVPSLHHRALDAEEEACLHSCAGKLIHSNHRLMAAYVQLMPALVQRRIADYEAASAVPGVAAEQPGVSPSGS

Results are given in words; binding and its absence hold for the method and conditions named. Binding seen in cells or lysates may run through a third protein. These calls come from enrichment with a bait or labelling near it, and not all partners need be listed.

One assay has as its target FLAG-tagged human NCBP2-AS2 (human) (UniProt Q69YL0). As to the kind of experiment: affinity purification with mass spectrometry.
Consider “FLAG-tagged human NCBP2-AS2 (from UniProt Q69YL0 1-99)”, for which the binding result is given as “binds”.

With ATP5A1 (from UniProt P25705 44-553), the binding entry is recorded as “binds”.

Regarding VDAC1 (from UniProt P21796 1-283), the binding result is given as “binds”.

Consider ATP5B (from UniProt P06576 48-529), for which the binding entry is reported as “binds”.

The target is the same in a further assay. Nature of the assay: affinity purification with mass spectrometry. This is another data set of the same source.
Consider B1, for which the binding entry is recorded as “binds”.

For B2, the binding entry is reported as “binds”.

As for B3, the binding result is “binds”.

On to B4, for which the binding entry is given as “binds”.

As to B5, the binding result is “binds”.

On to B6, for which the binding result was “binds”.
